Reference: patent US20150353631A1
No constants are given. Whether binding was seen depends on the method and setting. Some binding calls cover weakened binding; strength is not graded here.

What was measured:
[1] = target: Aβ plaques in brain sections of Alzheimer's disease patients (human); assay: IHC on unfixed AD occipital cortex sections, visual score; A (E3/E3), patient 24-01, Braak VI
[2] = target: Aβ plaques in brain sections of PDAPP mice (human (hAPP transgene in mouse)); assay: immunoperoxidase staining with biotinylated antibody; unfixed and fixed sections, frontal cortex
[3] = target: Aβ plaques in brain sections of Alzheimer's disease patients (human); assay: immunostaining of unfixed AD brain sections, FIGS. 1A and 1B
[4] = target: Aβ plaques in brain sections of Alzheimer's disease patients (human); assay: IHC on unfixed AD occipital cortex sections, visual score; B (E3/E4), patient 24-01, Braak VI
[5] = target: Aβ plaques in brain sections of Alzheimer's disease patients (human); assay: IHC on unfixed AD occipital cortex sections, visual score; A (E3/E3), patient 8-00′, Braak V
[6] = target: Aβ plaques in brain sections of Alzheimer's disease patients (human); assay: IHC on unfixed AD occipital cortex sections, visual score; B (E3/E4), patient 05-02′, Braak V
[7] = target: Aβ plaques in brain sections of Alzheimer's disease patients (human); assay: IHC on unfixed AD occipital cortex sections, visual score; A (E3/E3), patient 11-03, Braak V
[8] = target: Aβ plaques in brain sections of Alzheimer's disease patients (human); assay: IHC on unfixed AD occipital cortex sections, visual score; B (E3/E4), median of five patients
[9] = target: Aβ plaques in brain sections of Alzheimer's disease patients (human); assay: fluorescent double labeling with 3D6, unfixed AD brain sections, FIG. 3A
[10] = target: Aβ plaques in brain sections of Alzheimer's disease patients (human); assay: fluorescent double labeling with 3D6, unfixed AD sections
[11] = target: Aβ plaques in brain sections of Line 41 mice (human (hAPP transgene in mouse)); assay: immunoperoxidase staining with biotinylated antibody; unfixed and fixed sections, somewhat stronger after acetone/ethanol fixation
[12] = target: Aβ plaques in brain sections of Alzheimer's disease patients (human); assay: IHC on unfixed AD occipital cortex sections, visual score; A (E3/E3), patient 05-02′, Braak V
[13] = target: Aβ plaques in brain sections of Alzheimer's disease patients (human); assay: IHC on unfixed AD occipital cortex sections, visual score; B (E3/E4), patient 11-03, Braak V
[14] = target: Aβ plaques in brain sections of Line 41 mice (human (hAPP transgene in mouse)); assay: immunoperoxidase staining of mouse brain sections
[15] = target: Aβ plaques in brain sections of Alzheimer's disease patients (human); assay: IHC on unfixed AD occipital cortex sections, visual score; A (E3/E3), median of five patients
[16] = target: Aβ plaques in brain sections of Alzheimer's disease patients (human); assay: immunoperoxidase staining of unfixed AD brain sections
[17] = target: Aβ plaques in brain sections of Alzheimer's disease patients (human); assay: IHC on unfixed AD occipital cortex sections, visual score; B (E3/E4), patient 8-00′, Braak V

Measured: binding

B1: 21F12 monoclonal antibody (antibody, IgG1, V domains shown)
VH: EVQLQQSGPELLKPGASVKISCKASGFTFTDYTMHWMKQSHGKSLEWIGGINPNSGGTIYNEKFKDKATLTVDKSSRTAYMELRSLTSEDSAVYFCTRGVYDGYFYWGQGTLVTVSA
VL: DVVMTQTPLSLPVSLGDQASISCRSSQSLVYSNGNTFLHWYLQKPGQSPKLLIYKVSTRFSGVPDRFSGSGSGSDFTLKISRVEAEDLGIYFCSQTTHAPFTFGSGTKLAI
binds: all assays above
